# Percent effect of library compounds

The chains behind the UniProt entries cited, without tags or fusion partners. Residues count along the entry.
UniProt P9WPC5, whole entry: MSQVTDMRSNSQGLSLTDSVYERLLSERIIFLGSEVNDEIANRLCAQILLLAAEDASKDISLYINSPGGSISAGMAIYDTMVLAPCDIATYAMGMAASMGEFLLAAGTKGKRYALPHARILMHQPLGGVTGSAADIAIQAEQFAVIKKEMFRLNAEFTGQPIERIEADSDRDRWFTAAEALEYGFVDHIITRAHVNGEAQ
UniProt P9WPC3, whole entry partner: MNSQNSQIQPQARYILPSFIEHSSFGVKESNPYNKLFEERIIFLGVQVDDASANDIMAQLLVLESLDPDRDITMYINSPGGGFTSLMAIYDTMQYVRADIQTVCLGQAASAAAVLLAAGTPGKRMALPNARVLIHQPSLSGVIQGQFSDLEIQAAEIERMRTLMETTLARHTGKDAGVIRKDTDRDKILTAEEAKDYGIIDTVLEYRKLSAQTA
UniProt A4I591, 1-473: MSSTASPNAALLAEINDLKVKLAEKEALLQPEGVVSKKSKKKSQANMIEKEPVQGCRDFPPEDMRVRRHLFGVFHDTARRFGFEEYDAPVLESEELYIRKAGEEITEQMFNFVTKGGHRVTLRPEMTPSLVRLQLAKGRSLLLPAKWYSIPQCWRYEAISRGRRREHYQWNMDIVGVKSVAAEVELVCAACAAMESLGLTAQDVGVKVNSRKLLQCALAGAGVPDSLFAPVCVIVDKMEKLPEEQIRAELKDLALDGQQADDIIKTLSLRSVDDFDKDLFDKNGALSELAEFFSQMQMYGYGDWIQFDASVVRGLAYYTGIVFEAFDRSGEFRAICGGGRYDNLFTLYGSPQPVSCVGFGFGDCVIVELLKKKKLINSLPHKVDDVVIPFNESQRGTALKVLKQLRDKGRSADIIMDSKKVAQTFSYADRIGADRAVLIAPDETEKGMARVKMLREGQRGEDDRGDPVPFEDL

Measurements from “University of Dundee, Small-Polar-MMV Screening Library” (2021), ChEMBL document CHEMBL3988442.

ClpP1P2: 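Protease assay of ClpP1P2, read by the AMC dye that it sets free. Target: ClpP1P2, Mycobacterium tuberculosis (UniProt P9WPC5 and UniProt P9WPC3). Concentration: 50 µM. Higher reads as stronger inhibition, judged from the few compounds that gave an IC50. Most other retested compounds had strongly negative values. About 69,000 compounds were tested under these conditions; 0.015% (about 10) showed 50% or more at least once.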
LiHisRS: 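Histidine-tRNA ligase, Leishmania infantum (UniProt A4I591). Enzyme assay of histidyl-tRNA synthetase; the read-out is not stated. Tested at 30 µM. Higher reads as stronger inhibition (inferred: compounds with an IC50 in retests scored well above the rest). The assay is labelled LdHisRS but filed under L. infantum. About 69,000 compounds were tested under these conditions; 0.6% (about 410) showed 50% or more at least once.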

Values are the deposited “Percent Effect”, in %. The record does not define 0% and 100%; most values in the screen are far below 50% and negative numbers occur (in some assays of this library far below -100). Compounds were drawn at random from those tested, without regard to their results.

For Cc1nc(NC(=O)C(C)S(C)(=O)=O)sc1Cc1ccc(F)cc1 (configuration not stated) the result was ClpP1P2: 6.435%; LiHisRS: 0%.
For COCCN1CCN(Cc2ccc(F)c(C)c2)[C@H]2CS(=O)(=O)C[C@H]21 the result was ClpP1P2: -10.23%; LiHisRS: 19.05%.
For O=C1NC[C@@]2(C(=O)O)CN(Cc3cccc(Oc4ccccc4)c3)C[C@@H]12 the result was ClpP1P2: -7.466%; LiHisRS: 18.18%.
For COCCn1ccc2c(NC(=O)C(C)C)cccc21 the result was ClpP1P2: -15.83%; LiHisRS: 12.5%.
For Cc1nnc(NCC2(c3ccccc3)CCC2)c(C#N)c1C the result was ClpP1P2: -8.05%; LiHisRS: 26.03%.
For CCCN(C(=O)c1cc2c([nH]c1=O)CCCC2=O)C1CCCCC1 the result was ClpP1P2: -10.01%; LiHisRS: 20%.
For CN(Cc1cc(C2CC2)[nH]n1)Cc1cc2ccc(F)cc2[nH]c1=O the result was ClpP1P2: 8.09%; LiHisRS: 10.42%.